Results published in PubChem BioAssay AID1508600 (Functional Genomics Laboratory (NCATS/FGL), 2020).
Hit rate of the full screen: of about 53,000 sequences, about 3,700 (7%) were called active.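 The calls were made as follows: active = gene knockdowns whose robust z-score for IL-1 alpha signal is at least 2 or at most -2, so actives lie on both sides; inactive = the rest.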 The list shows a part of the results.

Assay: Components of the Cytosolic LPS Sensing Pathway: Gene Identification via Genome-wide siRNA Screen;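 also: robust z of the log signal after scaling to non-targeting control siRNA wells of the plate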
Conditions: RAW264.7 macrophages, IL-1a HTRF, actives lie on both sides, screened at 100 nM (by protocol), cells primed 5 h with Pam3CSK4 first
Method in brief: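 IL-1a HTRF of supernatants after 24 hour LipidA transfection of Pam3CSK4-primed (5 hours) RAW264.7 cells, 48h post-siRNA transfection (100 nM). Scores: percent of plate negative-control median, then log-based robust z-score.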

Sequence	z-score
CCAUCUAGUGCUGUAUUUCTT against Rnf215	inactive: 0.67
GGAUACAAUCCUUUUGGAUTT against Dnajb1	inactive: 0.205
GGACAUUGAGGACUAUGACTT against Grk1	inactive: -1.38
CCUAUGAAUUGGCUAUCAUTT against Slc47a1	inactive: -0.246
GAGUGUCCGAUAGACCGUUTT against Rbm4	inactive: -0.429
CCGAAGUCAAUGAAGCUCUTT against Gcsh	active: -2.13
GGCGGAUCAGCUGUAUAAGTT against Pdha1	inactive: 0.0277
GGAAACUUAAGCAAAUUCUTT against Gprc6a	active: 3.11
GUGACCACUCUGCCAAUUGTT against Olfr1255	inactive: 1.24
GGUUGCAUUUUUGGAUUUATT against Fbxw2	inactive: 1.64
CCAAUUGAGAAUAAACUCATT against Gnrhr	inactive: 1.79
UACGGGCUGAACAUGUGCCTT against Rps29	inactive: 0.781
GGAAGGCAUUGAAGCUGAATT against Armt1	inactive: 0.447
GCCAUAUUGAGGUGAAAGATT against Tnc	inactive: 0.775
GCAAGAACAGCCCUUUCACTT against Ncf4	inactive: -0.165
GGGUCCUAAACAGACCAGATT against Erv3	inactive: -0.49
GGAACUGGGUCUUCUUCAUTT against Csnk1g3	inactive: -0.206
GGAUAUGGGAAUGAAAGCATT against Nyap2	active: -2.21
GGGAGAUGGACAAGGUUACTT against Teddm2	inactive: 0.697
GCUCUACCCAAUCAAGACCTT against Asb14	inactive: 0.31
GCACAAAUCUGGUAAGUCATT against Gtf2h1	inactive: 0.474
GUGAGCAGUGCUUUGAUCUTT against Tff2	inactive: -0.815

Sequence	z-score
CCCACCUUUGUCAACCAAATT against Pcdhga10	inactive: 0.0214
GGUCAAUUGGAAAUAAGAATT against Mfsd14a	inactive: 0.0163
GCCAACUACGUAUAUACAUTT against 4921511C20Rik	active: 2.41
GCUUCUACGGCAAAUGAAUTT against Cdr2	inactive: -0.427
GGAUUUUUAGUGUUUGACATT against Rab39	inactive: -1.52
CCAAGUUGGCUUUAAUUGCTT against Abcb4	inactive: -0.158
CGCAUGCUGGUAAAACGGATT against Frem1	inactive: -0.303
GGACUGAGAACCAGAUCAUTT against Rnaseh2c	inactive: 0.851
CCAGAUAAUAAUUUGGAUGTT against Dhx9	inactive: 0.0852
GCCACUCAAUAAUCGCUGUTT against Car10	inactive: 0.42
GCAGUGAAUGAACCGCUGUTT against Cd59a	inactive: 0.864
CCCUGUGACCAGGAUUACATT against Stap2	inactive: -0.545
CCUGAAGAUGAAUUAUUGCTT against Plg	inactive: 0.551
GGGCAGAGGCAUUUCUGUATT against Psg23	inactive: 1.76
GGCAAUAGCUUUACCUAUGTT against Lzts2	inactive: 0.669
GCCAUAGGACCUAAAAGACTT against B3galnt2	inactive: -1.6
GGUCUCUGAAGACAAAAAATT against Sema4d	inactive: -0.252
GGCCAUCGAACUCAAUCUCTT against Lrrc57	inactive: 0.243
GGGAAAAGAUCGACAAAGATT against Plk2	inactive: -0.217
GUGUUCAGCACCCUGGCAATT against Klra3	inactive: 0.757
GGCUCCUGUACCACCAAAATT against Wnt7b	inactive: -0.707
GGGAAUUUCAGGCUAUAUUTT against Taf2	inactive: 1.13

Six entries picked at random from the list so far, as already listed:
Sequence	z-score
GCCAUAGGACCUAAAAGACTT against B3galnt2	inactive: -1.6
GCAAGAACAGCCCUUUCACTT against Ncf4	inactive: -0.165
GCUCUACCCAAUCAAGACCTT against Asb14	inactive: 0.31
GUGAGCAGUGCUUUGAUCUTT against Tff2	inactive: -0.815
GGGUCCUAAACAGACCAGATT against Erv3	inactive: -0.49
GCAGUGAAUGAACCGCUGUTT against Cd59a	inactive: 0.864

Later entries:

Sequence	z-score
GCAUUCAUCAAAUUUACAGTT against Prrg4	inactive: -0.67
GGUCACUAUACCUGGUAGATT against Aire	inactive: 1.26
CCCAUUACCUGAUCAGUGGTT against Zc4h2	inactive: 0.946
GUCCCAGUACCUCAUUUUUTT against Vmn1r18	inactive: 1.65
GGUAAGAGAGGUUUUUUCCTT against Synpo2l	inactive: 0.0886
GGGAGAGUCAAACAGAGCATT against Dio1	inactive: -0.378
GGUGAAGCCAAGAAUAGCATT against Abraxas1	inactive: -1.46
GCAGCGGUGAACAAUAUAATT against 1700123K08Rik	inactive: 0.676
GCCCAAGCUUUUAUCAAGATT against Frmd4b	inactive: 1.48
GGAUGAUAUGGUAACCUGCTT against Trim68	inactive: -0.46
GCACGUACGAAGCAAGUAATT against Nlrp1a	inactive: -0.0277
GCCUCUGUCAAGUCUUGGATT against Ftl1	active: -2.17
GCUGUAUCUUGUGAACAGCTT against Rad9b	inactive: 0.393
GGCCUACAUUUUAAUUCAGTT against Tmem132c	inactive: -0.167
GGGUAAUUUUUCACAACAGTT against 1110051M20Rik	inactive: -0.645
GGAAGCAGAUGACUGGGAATT against H2-T10	inactive: 0.841
CCUACUCACAGUAAUUAAGTT against Trpm8	inactive: 0.398
GGAGGAAUCGCACUAUAUUTT against Plppr4	inactive: 0.956
GGAGUUUAUGAAAUUCAACTT against Fcgrt	inactive: 1.34
GGACAUAUUCCUGAAUGGCTT against Bco2	inactive: 0.663
GGGACUCAUUGCUAACUCATT against Tnpo3	inactive: 0.344
GGAAUUUUCUCGAUUUCACTT against Pde6b	inactive: 1.13

Sequence	z-score
CCCUGAUAGUUGCUUGUACTT against E330021D16Rik	inactive: 0.523
GUGUAUCUUAUGCAAUGAUTT against Olfr582	inactive: 0.504
GGGACUUGUCAGGUUUCUATT against Cptp	inactive: 0.2
CCAUUAAAACCACUAUCUGTT against Aftph	inactive: 0.467
CCAGACGCGUAACUGCUACTT against Cox6b2	active: 3.26
GGUGUAAAGAAAACAUUCCTT against Ctcf	inactive: -1.03
GCUUGCCAUCGACAACCUGTT against Bnip1	inactive: 0.806
GGCGUAUACCGGGAAUCCUTT against Ndrg1	inactive: -0.505
GGAAUGACAUUGCUACUGUTT against Zdhhc16	inactive: -1.88
GGAAAUAGAGGUUUGUUCATT against G6pc2	inactive: 1.58
CGAAUACCUGAAGUGCAAATT against Art3	inactive: 0.454
GCCCACGUUUUAAGUCUACTT against Ap1s3	active: 3.69
GUCUCUUCUAAGCUCCAUCTT against Olfr486	inactive: 0.775
GCUAAAGAUGAGCGUACAUTT against Myh10	inactive: 1.44
GAGGUUUGGCAGAAGUGCATT against Npff	inactive: -1.95
GGCUGCACAAAACGAGAUCTT against Tcirg1	inactive: -0.0738
GCACCAGUCGGUAUUCACATT against C1qc	inactive: -0.665
GCUCGUUGCAUAAAAAGAGTT against Creg2	inactive: -0.286
CCUAGAAGCUAAUUACCAATT against Saa4	inactive: -0.946
CCUGUCUAAGCCCUUGGUATT against Mpst	inactive: 0.306
GGAGGAACCUAAUUGAAUGTT against Cmbl	inactive: 0.183
GCUUCUUAAAGAUGCCGUCTT against Lgi4	inactive: -0.181

Two entries from above, with each value named.
GAGGUUUGGCAGAAGUGCATT against Npff
  z-score: inactive: -1.95
GGCUGCACAAAACGAGAUCTT against Tcirg1
  z-score: inactive: -0.0738

(listing goes on)

Sequence	z-score
GGUUUUACUGUGAUGAACGTT against Pcyt1b	inactive: -0.497
GGGACUUCAACUUAGUUAUTT against Dppa1	inactive: 0.845
GGAUAGCAUACAGUUGUAATT against Gabpb2	inactive: -0.702
GGAGUCUGAAGAUGACAUGTT against Rplp1	inactive: -0.775
GCAUAAUAGUAAAUGCCAUTT against Smyd1	inactive: 0.82
GGAUUUCAUUCCAAACAUGTT against Hbs1l	inactive: -0.161
GGAGGUGACCUGUAAUCCCTT against Msmb	inactive: 0.0151
GGCAUUGCUGACUACAAACTT against Tcn2	active: 2.15
GGAUCGAACUGAGAACUUUTT against Zdhhc24	inactive: -0.156
CCUUUCAGCUUACAUUUAATT against Cyp4a12b	inactive: -0.241
GGUGACUUCCACUCUAACUTT against Sohlh2	active: -2.57
GCUUGGUAAAAUGAAAGUCTT against Klhl12	inactive: 0.22
GCCAAAGUGUGUGUUGAAGTT against Gng11	inactive: -0.296
CCAAAGGCCAAAUAACAGUTT against Timm17a	inactive: 0.125
GGAACUUUUGGCCAGCAAGTT against Opa1	inactive: 1.59
GCUUCAAACCUAAUACAUCTT against Mc3r	inactive: 1.85
GGUCUCUUCAUGAUGGAUGTT against Akt1s1	inactive: 0.731
GGAUGCUAAUUCAAGUCUUTT against Slc1a7	inactive: 0.292
CCUUCUCUAUGAUCAGGCUTT against Doc2a	inactive: 0.0548
